The record followed here is PubChem BioAssay AID256 (DTP/NCI, 2004).

The list shows only some results of the screen, not a fair sample: it gathers tests that were run many times, whatever their T/C, doses with no T/C, and many T/C values between a quarter and a half above the control. Other doses and runs of a compound stand elsewhere. T/C gives the treated animals as a percentage of the vehicle group. Some doses have a count of surviving animals in place of a T/C: the source files T/C as zero there, which appears to mark a toxic dose or a test without result, not a measured value. Some doses without a T/C left all or most animals alive at the check, yet need not have been tolerated: survival well below the control is almost never listed, so the zero probably covers shortened survival too. Survivors were counted at the toxicity check, usually on the fifth day, unless a day is given; later deaths do not show. Schedules are NCI's codes, read here as Q, the interval in days (D) or hours (H), X, the number of doses. Where survival is the endpoint, this PubChem deposit counts one and a half times the control or more as active, and values a quarter to a half above the control carry no call in these data; other NCI protocols may use other cut-offs. Some T/C values are followed by the survivors on the day toxicity was checked, most often the fifth; where none is given, no animal had died by that day. Some doses were run more than once; their values stand side by side, smallest first.

This assay relates to CD2F1 mice, L1210 leukemia ip, survival T/C. Nature of the assay: NCI In Vivo Anticancer Drug Screen. Data for tumor model L1210 Leukemia (intraperitoneal) in CD2F1 (CDF1) mice. The settings on record: higher T/C = longer survival. Summed up:
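In this screen, transplantable tumors were grown in mice given either the compound or its vehicle. Results were expressed as the treated measurement relative to the control measurement.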

The mark [1] stands for this setting: T/C endpoint: median survival time, dose: 50.0 mg/kg/injection, schedule: Q01DX009 (ip), vehicle: saline with Tween-80.
Where [2] appears, read: T/C endpoint: median survival time, dose: 400.0 mg/kg/injection, schedule: Q01DX009 (ip), vehicle: saline with Tween-80.

Turning to `ClCCCN1CCCCC1CCl` (stereo not drawn), the T/C (T/C endpoint: mean survival time, dose: 12.5 mg/kg/injection, schedule: Q04DX003 (ip), vehicle: saline) is 127 % of control. Moreover, the survivor count (T/C endpoint: mean survival time, dose: 50.0 mg/kg/injection, schedule: Q04DX003 (ip), vehicle: saline) is reported as 6 of 6.

Take `Cc1ccc(-n2c(=S)[nH]c3ccc(C)cc3c2=O)cc1`: the survivor count was 6 of 6 (T/C endpoint: mean survival time, dose: 3.13 mg/kg/injection, schedule: Q01DX009 (ip), vehicle: saline with Tween-80); 6 of 6 (T/C endpoint: mean survival time, dose: 6.25 mg/kg/injection, schedule: Q01DX009 (ip), vehicle: saline with Tween-80); 6 of 6 (T/C endpoint: mean survival time, dose: 12.5 mg/kg/injection, schedule: Q01DX009 (ip), vehicle: saline with Tween-80); 5 of 6 (T/C endpoint: mean survival time, dose: 25.0 mg/kg/injection, schedule: Q01DX009 (ip), vehicle: saline with Tween-80).

`O=C(/C=C\c1ccc(/C=C/C(=O)Nc2cccc(C3=NCCCN3)c2)cc1)Nc1cccc(C2=NCCCN2)c1`: the T/C by setting is: (T/C endpoint: median survival time, dose: 1.25 mg/kg/injection, schedule: Q01DX009 (ip), vehicle: Klucel (hydroxypropylcellulose) (HPC)) 126 and 128 % of control; (T/C endpoint: median survival time, dose: 2.5 mg/kg/injection, schedule: Q01DX009 (ip), vehicle: Klucel (hydroxypropylcellulose) (HPC)) 139 and 147 % of control; (T/C endpoint: median survival time, dose: 20.0 mg/kg/injection, schedule: Q01DX009 (ip), vehicle: Klucel (hydroxypropylcellulose) (HPC)) 137 % of control.

Consider `O=S1OCC2(CO1)COS(=O)OC2` (stereo not drawn), for which the survivor count (T/C endpoint: mean survival time, dose: 12.5 mg/kg/injection, schedule: Q01DX001 (ip), vehicle: saline with Tween-80) is given as 1 of 3.

Take `CCCCn1cnc2c(=S)nc[nH]c21`: the T/C runs as follows: (T/C endpoint: mean survival time, dose: 100.0 mg/kg/injection, schedule: Q01DX009 (ip), vehicle: saline) 125 % of control; (T/C endpoint: mean survival time, dose: 128.0 mg/kg/injection, schedule: Q01DX009 (ip), vehicle: saline) 126 % of control; under setting [1], 149 % of control. Besides, the survivor count under setting [2] is on record as 4 of 6.

Regarding `ClC1=CCCCC1`, the survivor count by setting is: (T/C endpoint: mean survival time, dose: 200.0 mg/kg/injection, schedule: Q04DX003 (ip), vehicle: acetone) 1 of 6; (T/C endpoint: mean survival time, dose: 400.0 mg/kg/injection, schedule: Q04DX003 (ip), vehicle: acetone) 0 of 6.

In the case of `CNC(=O)Oc1ccc(S(=O)(=O)c2ccc(OC(=O)NC)cc2)cc1`, the T/C is 125 % of control under setting [1]; 140 % of control (T/C endpoint: median survival time, dose: 100.0 mg/kg/injection, schedule: Q01DX009 (ip), vehicle: saline with Tween-80); 125 and 129 % of control [4 of 5 alive] (T/C endpoint: median survival time, dose: 200.0 mg/kg/injection, schedule: Q01DX009 (ip), vehicle: saline with Tween-80). The survivor count runs as follows: (T/C endpoint: median survival time, dose: 333.0 mg/kg/injection, schedule: Q01DX009 (ip), vehicle: saline with Tween-80) 4 of 6; (T/C endpoint: median survival time, dose: 334.34 mg/kg/injection, schedule: Q01DX005 (ip), vehicle: saline with Tween-80) 0 of 6; under setting [2], 0 of 6; (T/C endpoint: median survival time, dose: 555.56 mg/kg/injection, schedule: Q01DX005 (ip), vehicle: saline with Tween-80) 0 of 6.

For `CC(=O)[C@]1(O)Cc2c(O)c3c(c(O)c2[C@@H](OC2CC(N)C(O)C(C)O2)C1)C(=O)c1c(O)cccc1C3=O` (stereo partly drawn), the T/C (T/C endpoint: mean survival time, dose: 0.14 mg/kg/injection, schedule: Q01DX009 (ip), vehicle: saline) was 132 % of control; the T/C (T/C endpoint: mean survival time, dose: 0.23 mg/kg/injection, schedule: Q01DX009 (ip), vehicle: saline) is 129 % of control; the T/C (T/C endpoint: mean survival time, dose: 0.39 mg/kg/injection, schedule: Q04DX003 (ip), vehicle: saline) was 140 % of control; the T/C (T/C endpoint: mean survival time, dose: 0.65 mg/kg/injection, schedule: Q04DX003 (ip), vehicle: saline) is 128 % of control; the T/C (T/C endpoint: mean survival time, dose: 1.08 mg/kg/injection, schedule: Q04DX003 (ip), vehicle: saline) is 139 % of control.

On to `CC1=NCCCN=C(C)CC[N-]CCC[N-]CC1.[Ni+2].[O-][Cl+3]([O-])([O-])O`, for which the survivor count is, setting by setting: (T/C endpoint: mean survival time, dose: 200.0 mg/kg/injection, schedule: Q04DX002 (ip), vehicle: saline) 1 of 3; (T/C endpoint: mean survival time, dose: 400.0 mg/kg/injection, schedule: Q04DX002 (ip), vehicle: saline) 0 of 3.

Take `CC(C)CC#N`: the survivor count is on record as 3 of 6 (T/C endpoint: mean survival time, dose: 200.0 mg/kg/injection, schedule: Q01DX009 (ip), vehicle: saline with Tween-80) and 0 of 6 (T/C endpoint: mean survival time, dose: 400.0 mg/kg/injection, schedule: Q01DX009 (ip), vehicle: saline with Tween-80).

In the case of `O=C(O)C[Se]CC(=O)O`, where the note is “T/C endpoint: mean survival time, dose: 400.0 mg/kg/injection, schedule: Q01DX001 (ip), vehicle: saline”, the survivor count is listed as 3 of 6.
